Results are given in words; binding and its absence hold for the method and conditions named. Some binding calls cover weakened binding; strength is not graded here.
Key:
[1] = biological target: T1, human B7-H3 on HeLa tumor cells (human) (UniProt Q5ZPR3); experiment: fluorescence microscopy of live HeLa cells, AlexaFluor594-conjugated antibody
T1 sequence (looked up): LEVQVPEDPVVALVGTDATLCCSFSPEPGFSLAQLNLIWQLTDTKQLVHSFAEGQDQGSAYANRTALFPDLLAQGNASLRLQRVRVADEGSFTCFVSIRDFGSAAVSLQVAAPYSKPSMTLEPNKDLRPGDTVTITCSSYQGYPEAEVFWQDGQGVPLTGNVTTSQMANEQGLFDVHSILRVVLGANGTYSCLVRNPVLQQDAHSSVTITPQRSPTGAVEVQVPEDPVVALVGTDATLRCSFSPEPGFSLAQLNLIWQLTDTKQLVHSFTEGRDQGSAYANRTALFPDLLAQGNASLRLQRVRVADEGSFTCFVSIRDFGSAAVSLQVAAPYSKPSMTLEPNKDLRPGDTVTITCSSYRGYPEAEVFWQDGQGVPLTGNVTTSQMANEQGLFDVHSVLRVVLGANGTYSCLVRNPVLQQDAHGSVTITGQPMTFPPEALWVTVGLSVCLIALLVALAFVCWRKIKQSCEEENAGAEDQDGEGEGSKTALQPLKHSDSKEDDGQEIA

[2] = biological target: Porcine 4Ig-B7-H3 extracellular domain (porcine); experiment: biolayer interferometry (Octet), antibody captured on the probe

B1: MIL33B-H3-hIgG1 (antibody, V domains shown)
VH: QVQLVQSGAEVKKPGASVKVSCKASGYTFTSYVMHWVRQAPGQRLEWMGYINSYSDGTKYNEKFKGRVTITRDTSASTAYMELSSLRSEDTAVYYCARWGGLGNGAMDYWGQGTLVTVSS
VL: EIVLTQSPATLSLSPGERATLSCSVSSSVNYMHWYQQKPGQAPRRLIYDTSKLASGIPARFSGSGSGTDYTLTISSLEPEDFAVYYCQQWTSNPLTFGQGTKLEIK
For B1, the binding [1] was “binds” and the binding [2] was “binds”.
